For this experiment, the target named is T1, partner of site-1 protease (POST1) with a 3×Flag tag (human) (UniProt Q9H741).
T1 sequence: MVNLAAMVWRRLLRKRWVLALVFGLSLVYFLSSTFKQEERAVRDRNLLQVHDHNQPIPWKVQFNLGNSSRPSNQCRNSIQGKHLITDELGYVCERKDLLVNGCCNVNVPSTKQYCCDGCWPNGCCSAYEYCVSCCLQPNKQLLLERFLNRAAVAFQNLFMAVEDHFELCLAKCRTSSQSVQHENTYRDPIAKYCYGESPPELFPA
Description: co-IP; HeLa cells transfected with pCMV-S1P-5×Myc and increasing amounts of pCMV-POST1-3×Flag for 48 h; precipitation with anti-Flag agarose.

Amino acid sequences for entries named in this document (tags omitted). A change or cut given only in a name is not applied to a line headed by its entry.
UniProt Q14703: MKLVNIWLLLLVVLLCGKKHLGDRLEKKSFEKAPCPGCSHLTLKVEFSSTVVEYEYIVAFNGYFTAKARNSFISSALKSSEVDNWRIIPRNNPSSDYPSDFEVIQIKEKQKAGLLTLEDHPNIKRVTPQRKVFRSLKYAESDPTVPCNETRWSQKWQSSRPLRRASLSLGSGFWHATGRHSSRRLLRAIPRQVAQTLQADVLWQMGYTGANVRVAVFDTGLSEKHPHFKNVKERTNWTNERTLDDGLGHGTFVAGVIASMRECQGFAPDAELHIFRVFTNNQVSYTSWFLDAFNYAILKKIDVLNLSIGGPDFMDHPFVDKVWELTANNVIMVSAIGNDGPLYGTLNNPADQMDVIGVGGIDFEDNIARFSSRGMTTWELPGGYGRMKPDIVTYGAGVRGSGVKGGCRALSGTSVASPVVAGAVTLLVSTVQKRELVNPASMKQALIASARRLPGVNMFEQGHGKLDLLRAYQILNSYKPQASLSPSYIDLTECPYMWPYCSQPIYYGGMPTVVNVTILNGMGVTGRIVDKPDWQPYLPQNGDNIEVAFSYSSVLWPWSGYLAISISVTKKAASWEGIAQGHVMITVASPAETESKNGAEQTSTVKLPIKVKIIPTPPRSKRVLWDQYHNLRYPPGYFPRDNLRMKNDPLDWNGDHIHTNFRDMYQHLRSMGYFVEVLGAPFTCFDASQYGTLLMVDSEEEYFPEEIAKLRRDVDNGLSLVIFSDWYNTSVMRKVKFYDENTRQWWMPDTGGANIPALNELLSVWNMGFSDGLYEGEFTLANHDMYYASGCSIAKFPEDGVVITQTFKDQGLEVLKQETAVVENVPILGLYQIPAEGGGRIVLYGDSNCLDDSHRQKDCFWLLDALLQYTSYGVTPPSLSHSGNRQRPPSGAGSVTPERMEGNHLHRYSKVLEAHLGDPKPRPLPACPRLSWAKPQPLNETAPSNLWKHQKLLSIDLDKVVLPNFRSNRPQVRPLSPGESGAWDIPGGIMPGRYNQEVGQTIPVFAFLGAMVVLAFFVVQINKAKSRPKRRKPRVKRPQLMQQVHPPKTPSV

These are yes or no findings as the source states them, for the method shown. Binding seen in cells or lysates may run through a third protein. A result given as binding can be weak or reduced; the word gives no strength. Sequences can lack the tags named with a protein.

Turning to “site-1 protease (S1P) with a C-terminal 5×Myc tag (from UniProt Q14703) (enzyme)”, the binding result is reported as “binds”.
